Where two headings read alike, the source gives them in different places. No constants are given. Whether binding was seen depends on the method and setting. In cells and extracts the contact can be indirect. A yes stands for co-enrichment or nearness to the bait. Other partners may have been found. For some of these results: A no says only that the protein was not detected with the bait. For some of these results: Sequences can lack the tags named with a protein.

Protein sequences, listed by entry. Tags and fused reporters are not part of them.
UniProt Q4ZIN3: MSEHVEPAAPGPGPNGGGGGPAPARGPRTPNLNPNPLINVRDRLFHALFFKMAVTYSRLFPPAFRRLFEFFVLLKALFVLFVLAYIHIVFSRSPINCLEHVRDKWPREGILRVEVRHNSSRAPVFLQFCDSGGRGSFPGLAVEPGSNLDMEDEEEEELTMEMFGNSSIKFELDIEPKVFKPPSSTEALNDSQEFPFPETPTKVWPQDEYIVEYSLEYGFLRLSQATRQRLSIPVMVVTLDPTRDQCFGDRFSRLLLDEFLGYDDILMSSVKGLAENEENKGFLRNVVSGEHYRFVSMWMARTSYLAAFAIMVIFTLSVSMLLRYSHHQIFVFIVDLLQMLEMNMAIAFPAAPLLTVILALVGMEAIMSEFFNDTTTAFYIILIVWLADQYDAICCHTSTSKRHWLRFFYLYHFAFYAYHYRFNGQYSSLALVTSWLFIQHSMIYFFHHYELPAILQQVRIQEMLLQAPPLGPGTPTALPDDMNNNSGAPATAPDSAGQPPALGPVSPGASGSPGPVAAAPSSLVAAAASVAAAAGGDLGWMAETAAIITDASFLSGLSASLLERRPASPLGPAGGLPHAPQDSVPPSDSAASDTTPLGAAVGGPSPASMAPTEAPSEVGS
UniProt Q86TM6: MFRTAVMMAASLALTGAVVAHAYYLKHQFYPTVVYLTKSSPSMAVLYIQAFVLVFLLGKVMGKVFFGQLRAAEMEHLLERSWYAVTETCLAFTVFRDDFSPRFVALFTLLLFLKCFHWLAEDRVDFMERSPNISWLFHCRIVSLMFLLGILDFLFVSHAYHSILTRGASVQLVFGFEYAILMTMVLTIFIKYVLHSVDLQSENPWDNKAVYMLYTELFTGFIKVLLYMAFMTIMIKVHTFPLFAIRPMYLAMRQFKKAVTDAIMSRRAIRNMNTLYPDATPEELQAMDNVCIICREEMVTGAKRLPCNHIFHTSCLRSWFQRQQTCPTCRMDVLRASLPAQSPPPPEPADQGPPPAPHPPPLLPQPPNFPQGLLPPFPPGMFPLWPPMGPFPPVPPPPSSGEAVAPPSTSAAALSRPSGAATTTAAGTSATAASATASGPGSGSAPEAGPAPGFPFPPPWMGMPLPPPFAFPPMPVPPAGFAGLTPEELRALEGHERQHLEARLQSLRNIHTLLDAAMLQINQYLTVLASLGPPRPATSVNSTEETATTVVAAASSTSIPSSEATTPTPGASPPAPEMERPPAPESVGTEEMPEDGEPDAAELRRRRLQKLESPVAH
UniProt Q71RG4: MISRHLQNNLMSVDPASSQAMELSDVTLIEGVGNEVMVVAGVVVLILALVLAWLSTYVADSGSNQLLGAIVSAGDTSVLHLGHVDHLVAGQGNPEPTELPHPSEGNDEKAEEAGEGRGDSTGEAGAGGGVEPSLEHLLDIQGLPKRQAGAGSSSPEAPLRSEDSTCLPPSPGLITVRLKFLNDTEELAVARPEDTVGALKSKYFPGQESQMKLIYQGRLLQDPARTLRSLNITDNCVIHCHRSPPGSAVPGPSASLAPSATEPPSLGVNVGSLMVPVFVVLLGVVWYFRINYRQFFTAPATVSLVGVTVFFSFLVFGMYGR

For seven molecules, binding results are on record in publication PMC7482433.

The target in test [1] is T1, 3xFLAG-RNF185 (human) (UniProt Q96GF1).
T1 sequence: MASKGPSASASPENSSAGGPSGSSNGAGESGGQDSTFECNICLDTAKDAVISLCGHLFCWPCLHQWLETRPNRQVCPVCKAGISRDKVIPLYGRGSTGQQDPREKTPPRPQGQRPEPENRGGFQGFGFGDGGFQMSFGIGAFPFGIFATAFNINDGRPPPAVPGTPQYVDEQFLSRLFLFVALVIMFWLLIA
In words: affinity purification with mass spectrometry; FLAG-M2 magnetic beads on FLAG-tagged baits from detergent extracts (1% DMNG, 50 mM Tris-HCl pH 7.5, 150 mM NaCl), 3xFLAG peptide elution; cells untreated or treated with the p97 inhibitor CB-5083; enrichment over an untagged control.

For test [2], the target named is endogenously tagged Membralin-mNeonGreen (human (endogenous in HeLa)) (UniProt Q4ZIN3). In words: affinity purification with mass spectrometry; mNeonGreen-Trap magnetic beads on endogenously tagged MBRL-mNG from HeLa lysate (1% DMNG); against an untagged control cell line.
Test [3] deals with T1, 3xFLAG-RNF185 (human). In words: affinity purification with mass spectrometry; FLAG-M2 magnetic beads on FLAG-tagged baits from detergent extracts (1% DMNG, 50 mM Tris-HCl pH 7.5, 150 mM NaCl), 3xFLAG peptide elution; cells untreated or treated with the p97 inhibitor CB-5083; enrichment over an untagged control. The source holds these as a separate data set.
The next test addresses MBRL-3xFLAG (human) (UniProt Q4ZIN3). Described as above.
In test [4] the target is endogenously tagged Membralin-mNeonGreen (human (endogenous in HeLa)) (UniProt Q4ZIN3). Put plainly: affinity purification with mass spectrometry; mNeonGreen-Trap magnetic beads on endogenously tagged MBRL-mNG from HeLa lysate (1% DMNG); against an untagged control cell line. This is another data set of the same source.
The target in the next test is FLAG-tagged HRD1 (human) (UniProt Q86TM6). Put plainly: affinity purification with mass spectrometry; FLAG-M2 magnetic beads on FLAG-tagged baits from detergent extracts (1% DMNG, 50 mM Tris-HCl pH 7.5, 150 mM NaCl), 3xFLAG peptide elution; cells untreated or treated with the p97 inhibitor CB-5083; enrichment over an untagged control.

On to “endogenous Membralin (from UniProt Q4ZIN3 1-620)”, for which the binding result with 3xFLAG-RNF185 (human) [1] is “binds”. Still for that read-out and setting: the entry for p97 (from UniProt P55072 1-806) is “binds”. Turning to TMUB2 (from UniProt Q71RG4 1-321), the binding result in test [2] was “binds”.

B1: Erlin2 (protein, UniProt O94905 1-339)
chain: MAQLGAVVAVASSFFCASLFSAVHKIEEGHIGVYYRGGALLTSTSGPGFHLMLPFITSYKSVQTTLQTDEVKNVPCGTSGGVMIYFDRIEVVNFLVPNAVYDIVKNYTADYDKALIFNKIHHELNQFCSVHTLQEVYIELFDQIDENLKLALQQDLTSMAPGLVIQAVRVTKPNIPEAIRRNYELMESEKTKLLIAAQKQKVVEKEAETERKKALIEAEKVAQVAEITYGQKVMEKETEKKISEIEDAAFLAREKAKADAECYTAMKIAEANKLKLTPEYLQLMKYKAIASNSKIYFGKDIPNMFMDSAGSVSKQFEGLADKLSFGLEDEPLETATKEN
Regarding B1, the binding result (in the test with 3xFLAG-RNF185 (human) [3]; with MBRL-3xFLAG (human); in test [4]) was “binds” in each case.

B2: endogenous CYP51A1 (protein, UniProt Q16850 1-509)
chain: MAAAAGMLLLGLLQAGGSVLGQAMEKVTGGNLLSMLLIACAFTLSLVYLIRLAAGHLVQLPAGVKSPPYIFSPIPFLGHAIAFGKSPIEFLENAYEKYGPVFSFTMVGKTFTYLLGSDAAALLFNSKNEDLNAEDVYSRLTTPVFGKGVAYDVPNPVFLEQKKMLKSGLNIAHFKQHVSIIEKETKEYFESWGESGEKNVFEALSELIILTASHCLHGKEIRSQLNEKVAQLYADLDGGFSHAAWLLPGWLPLPSFRRRDRAHREIKDIFYKAIQKRRQSQEKIDDILQTLLDATYKDGRPLTDDEVAGMLIGLLLAGQHTSSTTSAWMGFFLARDKTLQKKCYLEQKTVCGENLPPLTYDQLKDLNLLDRCIKETLRLRPPIMIMMRMARTPQTVAGYTIPPGHQVCVSPTVNQRLKDSWVERLDFNPDRYLQDNPASGEKFAYVPFGAGRHRCIGENFAYVQIKTIWSTMLRLYEFDLIDGYFPTVNYTTMIHTPENPVIRYKRRSK
Consider B2, for which the binding entry is “binds” with 3xFLAG-RNF185 (human) [3], “no binding” in the test with FLAG-tagged HRD1 (human) and “binds” with MBRL-3xFLAG (human).

B3: endogenous RNF185 (protein, UniProt Q96GF1 1-192)
chain: T1 sequence
Take B3: in test [4], the binding entry was “binds”.

B4: Erlin1 (protein, UniProt O75477 1-348)
chain: MNMTQARVLVAAVVGLVAVLLYASIHKIEEGHLAVYYRGGALLTSPSGPGYHIMLPFITTFRSVQTTLQTDEVKNVPCGTSGGVMIYIDRIEVVNMLAPYAVFDIVRNYTADYDKTLIFNKIHHELNQFCSAHTLQEVYIELFDQIDENLKQALQKDLNLMAPGLTIQAVRVTKPKIPEAIRRNFELMEAEKTKLLIAAQKQKVVEKEAETERKKAVIEAEKIAQVAKIRFQQKVMEKETEKRISEIEDAAFLAREKAKADAEYYAAHKYATSNKHKLTPEYLELKKYQAIASNSKIYFGSNIPNMFVDSSCALKYSDIRTGRESSLPSKEALEPSGENVIQNKESTG
For B4, the binding entry (in the test with 3xFLAG-RNF185 (human) [3]; with MBRL-3xFLAG (human); in test [4]) was “binds” in each case.
